Some entries share one result that the patent states for a list of compounds.
How the values were obtained:
[1] = excipient compatibility study with dry powder inhalation carriers; format: physicochemical; conditions: mixtures of micronized API and carriers; preliminary evaluation
Procedure: Compatibility of epinephrine prodrugs Disobutyryl L-epinephrine (AQEP-09) and Dipivefrin was studied with common carriers used for dry powder inhalation applications. Lactose monohydrate, Lactose anhydrous and Mannitol were used for the stability evaluation. Mixtures of the micronized API and the carriers were tested under stability conditions, 25° C./60%RH and 40° C./75%RH.

[2] = esterase hydrolysis assay in human BAL fluid (prodrug stability); format: in vitro ADME; conditions: Human BAL fluid from 2 subjects; 1 μM; stabilizer sodium metabisulfite 8.9 mM
Procedure: Epinephrine prodrugs were evaluated. In vitro inhalation models were employed.
Hydrolysis of dipivefrin or AQEP-09 was studied in vitro in Human BAL fluid by measuring the epinephrine concentration. Frozen BAL fluid was used from 2 subjects. Compounds were incubated at 1 μM in the presence of a stabilizer (sodium metabisulfite, 8.9 mM). Samples were removed after stopping the enzyme reaction using NaF or SigmaFast at different timepoints. Samples were extracted and analyzed by LC-MS method. […] Less than 5% hydrolysis was observed.

Structure (SMILES) | time stable at room temperature (shelf-life conditions) [1] | hydrolysis [2]
CNCC(O)c1ccc(OC(=O)C(C)(C)C)c(OC(=O)C(C)(C)C)c1 (stereo not shown) [Dipivefrin] | at least 4 weeks | Less than 5%
CNCC(O)c1ccc(OC(=O)C(C)C)c(OC(=O)C(C)C)c1 [AQEP-09, Diisobutyryl L-epinephrine] | at least 4 weeks | Less than 5%
